Results are given in words; binding and its absence hold for the method and conditions named. In cells and extracts the contact can be indirect. A result given as binding can be weak or reduced; the word gives no strength.
Molecular target: HA-tagged RUNX1A (doxycycline-inducible, in K562 cells) (human) (UniProt Q01196)
Test: co-IP

By UniProt entry, the sequences of proteins in these tests, tags left out. Where a name states a change or a piece, a line headed by the entry shows the natural chain unless it says otherwise.
UniProt Q01196: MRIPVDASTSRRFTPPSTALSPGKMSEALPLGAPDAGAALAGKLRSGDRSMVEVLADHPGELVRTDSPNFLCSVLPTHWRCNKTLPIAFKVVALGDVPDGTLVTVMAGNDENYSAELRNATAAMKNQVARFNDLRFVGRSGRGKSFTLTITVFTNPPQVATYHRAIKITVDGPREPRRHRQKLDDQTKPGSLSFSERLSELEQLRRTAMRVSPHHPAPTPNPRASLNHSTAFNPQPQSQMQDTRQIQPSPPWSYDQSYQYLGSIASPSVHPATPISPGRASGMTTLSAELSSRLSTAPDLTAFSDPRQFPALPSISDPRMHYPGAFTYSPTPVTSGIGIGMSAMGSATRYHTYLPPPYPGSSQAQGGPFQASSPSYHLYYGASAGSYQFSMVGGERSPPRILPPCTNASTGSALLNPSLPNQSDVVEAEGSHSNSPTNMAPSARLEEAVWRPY
UniProt P61244: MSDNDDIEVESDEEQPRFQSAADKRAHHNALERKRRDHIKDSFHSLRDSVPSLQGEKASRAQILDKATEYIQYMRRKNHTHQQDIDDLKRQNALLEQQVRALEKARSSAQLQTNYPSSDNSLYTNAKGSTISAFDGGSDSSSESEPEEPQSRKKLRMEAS

In the case of “MAX (in K562 cells) (from UniProt P61244 1-160)”, the binding is reported as “binds”.

Source: article doi:10.1101/2022.03.07.483334
